The match of structure and compound is tentative.
What was measured:
Assay type in all cases: biochemical
human Yes1 enzyme = human Yes1 enzyme (Homo sapiens, UniProt P07947); test: Yes1 enzyme inhibitory activity (time-resolved fluorometry, biotinylated peptide phosphorylation); conditions: read-out: YES_IC50
Experimental: (§1) 1. Yes1 Enzyme Inhibitory Activity Yes1 inhibitory activity was determined based on activity of inhibiting phosphorylation reaction of a biotinylated peptide (EGPWLEEEEEAYGWMDF) using a human Yes1 enzyme prepared using a baculovirus expression system. The phosphorylated biotinylated peptide was detected by time-resolved fluorometry using an anti-phosphorylated tyrosine antibody conjugated to europium cryptate, and streptavidin conjugated to XL665, an allophycocyanin derivative. The 50% inhibitory concentration (IC50) was calculated from the inhibition rate relative to the control group without containing the test substance.

Protein sequences, listed by entry. Tags and fused reporters are not part of them.
UniProt P07947, whole entry: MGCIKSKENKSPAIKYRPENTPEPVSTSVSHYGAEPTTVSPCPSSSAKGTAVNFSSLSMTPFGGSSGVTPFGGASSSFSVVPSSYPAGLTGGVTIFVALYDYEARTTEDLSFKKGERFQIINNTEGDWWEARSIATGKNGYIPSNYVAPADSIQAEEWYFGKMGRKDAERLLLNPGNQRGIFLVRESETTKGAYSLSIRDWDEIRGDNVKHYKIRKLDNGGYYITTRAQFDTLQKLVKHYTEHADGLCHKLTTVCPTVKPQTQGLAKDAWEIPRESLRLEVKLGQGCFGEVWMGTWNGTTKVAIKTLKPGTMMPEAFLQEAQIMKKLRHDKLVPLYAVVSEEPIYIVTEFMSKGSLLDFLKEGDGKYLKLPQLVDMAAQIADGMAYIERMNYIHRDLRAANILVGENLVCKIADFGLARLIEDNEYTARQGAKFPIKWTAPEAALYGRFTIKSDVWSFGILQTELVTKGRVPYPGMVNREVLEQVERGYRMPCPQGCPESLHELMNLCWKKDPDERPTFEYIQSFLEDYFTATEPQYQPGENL
UniProt P12931, whole entry: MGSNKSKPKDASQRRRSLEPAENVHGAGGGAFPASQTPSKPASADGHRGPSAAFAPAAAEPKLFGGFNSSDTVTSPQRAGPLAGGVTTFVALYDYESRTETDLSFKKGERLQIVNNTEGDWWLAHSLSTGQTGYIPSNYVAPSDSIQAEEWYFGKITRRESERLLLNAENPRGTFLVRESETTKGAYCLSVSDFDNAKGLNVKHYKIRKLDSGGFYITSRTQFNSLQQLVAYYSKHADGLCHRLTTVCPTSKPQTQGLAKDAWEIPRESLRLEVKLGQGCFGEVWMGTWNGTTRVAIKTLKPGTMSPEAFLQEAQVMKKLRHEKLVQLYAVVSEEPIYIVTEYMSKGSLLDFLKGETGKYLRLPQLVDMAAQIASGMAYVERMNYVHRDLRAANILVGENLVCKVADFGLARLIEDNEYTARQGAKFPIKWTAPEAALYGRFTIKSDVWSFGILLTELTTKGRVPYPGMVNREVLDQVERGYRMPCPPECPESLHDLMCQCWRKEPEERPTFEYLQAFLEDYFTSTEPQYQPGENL
UniProt P06239, whole entry: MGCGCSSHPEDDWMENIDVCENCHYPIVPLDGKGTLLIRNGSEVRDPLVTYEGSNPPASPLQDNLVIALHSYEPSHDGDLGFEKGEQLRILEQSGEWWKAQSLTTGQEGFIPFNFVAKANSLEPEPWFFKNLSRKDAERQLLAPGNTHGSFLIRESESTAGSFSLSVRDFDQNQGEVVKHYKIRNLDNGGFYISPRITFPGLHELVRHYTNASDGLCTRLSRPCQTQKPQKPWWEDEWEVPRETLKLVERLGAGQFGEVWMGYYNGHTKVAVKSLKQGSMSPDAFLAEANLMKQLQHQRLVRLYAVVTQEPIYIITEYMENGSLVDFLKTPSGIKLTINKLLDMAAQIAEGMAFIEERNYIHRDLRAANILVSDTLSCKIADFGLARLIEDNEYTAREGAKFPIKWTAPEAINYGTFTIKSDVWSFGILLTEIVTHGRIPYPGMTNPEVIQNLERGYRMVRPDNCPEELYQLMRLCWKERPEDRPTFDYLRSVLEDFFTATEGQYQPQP

human Src enzyme = human Src enzyme (Homo sapiens, UniProt P12931); test: Src enzyme inhibitory activity (time-resolved fluorometry, biotinylated peptide phosphorylation); conditions: read-out: SRC_IC50
Experimental: as §1, with “2. Src” for “1. Yes1”, “Src” for “Yes1”, “(manufactured by Carna Biosciences, Inc., cat 08-173).” for “prepared using a baculovirus expression system.”

human Lck enzyme = human Lck enzyme (Homo sapiens, UniProt P06239); test: Lck enzyme inhibitory activity (time-resolved fluorometry, biotinylated peptide phosphorylation); conditions: read-out: LCK_IC50
Experimental: as §1, with “3. Lck” for “1. Yes1”, “Lck” for “Yes1”, “(manufactured by Carna Biosciences, Inc., cat 08-170).” for “prepared using a baculovirus expression system.”

## Cc1cc(Oc2ccccc2F)ccc1-n1ncc(C(=O)c2cc3cc(OCC(F)F)c(N4C(=O)N[C@@H](Cc5cnc[nH]5)C4=O)cc3[nH]2)c1N
Human Yes1 enzyme
  IC50: 1.1 nM
Human Src enzyme
  IC50: 9.6 nM
Human Lck enzyme
  IC50: 3.2 nM

## Cc1cc(Oc2ccccc2F)ccc1-n1ncc(C(=O)c2cc3cc(OCC(F)F)c(N4C(=O)[C@@H]5C[C@H](NS(C)(=O)=O)CN5C4=O)cc3[nH]2)c1N
Human Yes1 enzyme
  IC50: 0.89 nM
Human Src enzyme
  IC50: 10 nM
Human Lck enzyme
  IC50: 3.1 nM
